PMC12040169 (PLOS Biology, 2025)
Some of the results follow.

Tested on: T1, CTL2-GFP (C. trachomatis L2/434/Bu, GFP-expressing)
T1 construct: L2/434/Bu, GFP-expressing
Design: species or system HeLa; Intracellular C. trachomatis growth in HeLa cells, bulk GFP fluorescence relative to DMSO
Settings: bulk GFP, single well; 28.5 h, 10 µM; inhibitor

| Structure (SMILES) | % of control remaining [%] |
| --- | --- |
| CC(=O)Nc1cccc(C(=O)NC2CC(=O)N(C3CCCCCC3)C2)c1 (centres unmarked) [CBK307455] | 108.841 |
| O=c1c2ccccc2nc2n1CCN(Cc1cccs1)CC2 [CBK284815] | 131.819 |
| COc1cccc2[nH]c(C(=O)N3CCOC(c4cccc(-c5c(F)cccc5F)n4)C3)cc12 (centres unmarked) [CBK285948] | 77.9254 |
| CCCCCn1c(-c2ccccc2)n[nH]c1=O [CBK013288] | 135.623 |
| Cc1nc2c(c(=O)[nH]1)CCN(Cc1cn(C(C)C)c3ccccc13)C2 [CBK283991] | 114.195 |
| CS(=O)(=O)Nc1cc2cccnc2c(-c2ccccc2)n1 [CBK061928] | 124.095 |
| Cn1c(=O)c2ncn(CC(=O)Nc3cccc(C(=O)O)c3)c2n(C)c1=O [CBK266838] | 94.068 |
| CC(Nc1cc(Cl)c(C(F)(F)F)cc1[N+](=O)[O-])c1ccc2[nH]c(=O)[nH]c2c1 (centres unmarked) [CBK297721] | 118.47 |
| COc1cc(CNc2cncc(-c3ccc4c(c3)OCO4)n2)cc(OC)c1OC [CBK065922] | 161.642 |
| CC(C)(CNC(=O)Cn1cccc(C(=O)NC2CCCCC2)c1=O)c1ccccc1F [CBK286068] | 138.348 |
| Nc1cccc(-c2cn(C[C@H]3CC4CCN3C[C@@H]4C(=O)NCc3cccnc3)nn2)c1 (some centres unmarked) [CBK289088] | 130.244 |
| Cc1cc(Cl)c(OCCN2CCC(C)CC2)c(Br)c1 [CBK265088G] | 100 |
| COC(=O)c1ccc2c(=O)n(CC3CCCO3)c(SCCO)nc2c1 (centres unmarked) [CBK306041] | 134.326 |
| O=C(NC1CC1)[C@H]1CN2CCC1C[C@@H]2Cn1cc(CC2CCCCC2)nn1 (some centres unmarked) [CBK288739] | 111.822 |
| COc1ccc(S(=O)(=O)N2CCN(Cc3cc(OC)c(OC)c(OC)c3)CC2)cc1 [CBK263330] | 126.902 |
| CS(=O)(=O)NCC1(c2ccccc2)CCN(S(=O)(=O)c2ccc(N3CCOCC3)nc2)CC1 [CBK051634] | 83.4257 |
| O=C1C2(c3ccccc3)CN3CN(C2)CC1(c1ccccc1)C3 [CBK262245] | 115.093 |
| CC1=C(C(=O)OCC(=O)c2ccc(C)cc2)C2C=C(Br)C=CC2N=C1c1ccc(C)cc1 (centres unmarked) [CBK264079] | 111.519 |
| Cn1cccc1C(=O)N[C@H]1C[C@@H]2C(=O)N[C@H]3CCN(C(=O)CC(C)(C)C)[C@@H]3C(=O)N2C1 [CBK289271] | 116.411 |
| CCCn1c(SCC(=O)Nc2scc(-c3cccs3)c2C(=O)OCC)n[nH]c1=O [CBK296967] | 132.54 |

Three entries already listed, sorted by count of non-hydrogen atoms, low to high.

| Structure (SMILES) | % of control remaining [%] |
| --- | --- |
| CC(Nc1cc(Cl)c(C(F)(F)F)cc1[N+](=O)[O-])c1ccc2[nH]c(=O)[nH]c2c1 (centres unmarked) [CBK297721] | 118.47 |
| CC(C)(CNC(=O)Cn1cccc(C(=O)NC2CCCCC2)c1=O)c1ccccc1F [CBK286068] | 138.348 |
| COc1cccc2[nH]c(C(=O)N3CCOC(c4cccc(-c5c(F)cccc5F)n4)C3)cc12 (centres unmarked) [CBK285948] | 77.9254 |
